Data from article PMC10070233.
Results are given in words; binding and its absence hold for the method and conditions named. Some results given as binding are weak or reduced against the parent protein; the word gives no strength.

By UniProt entry, the sequences of proteins in these tests, tags left out. Residues count along the entry.
UniProt O00214: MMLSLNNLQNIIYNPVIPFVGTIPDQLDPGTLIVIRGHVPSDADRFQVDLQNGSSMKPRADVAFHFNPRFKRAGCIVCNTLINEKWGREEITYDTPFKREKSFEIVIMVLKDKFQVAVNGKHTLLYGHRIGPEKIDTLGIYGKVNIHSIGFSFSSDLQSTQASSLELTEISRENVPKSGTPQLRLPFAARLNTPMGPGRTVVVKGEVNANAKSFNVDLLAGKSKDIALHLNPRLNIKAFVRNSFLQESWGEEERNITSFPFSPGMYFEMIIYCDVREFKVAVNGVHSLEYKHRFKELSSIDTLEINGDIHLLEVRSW
UniProt P47929: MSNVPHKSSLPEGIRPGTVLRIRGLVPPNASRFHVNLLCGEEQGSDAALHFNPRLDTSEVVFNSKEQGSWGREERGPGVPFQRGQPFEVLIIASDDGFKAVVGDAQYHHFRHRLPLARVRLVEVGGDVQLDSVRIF
UniProt P09382: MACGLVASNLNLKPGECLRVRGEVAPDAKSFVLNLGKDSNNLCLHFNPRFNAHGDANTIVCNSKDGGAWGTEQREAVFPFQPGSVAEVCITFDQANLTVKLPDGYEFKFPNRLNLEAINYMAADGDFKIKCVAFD
UniProt P11362, residues 22-376: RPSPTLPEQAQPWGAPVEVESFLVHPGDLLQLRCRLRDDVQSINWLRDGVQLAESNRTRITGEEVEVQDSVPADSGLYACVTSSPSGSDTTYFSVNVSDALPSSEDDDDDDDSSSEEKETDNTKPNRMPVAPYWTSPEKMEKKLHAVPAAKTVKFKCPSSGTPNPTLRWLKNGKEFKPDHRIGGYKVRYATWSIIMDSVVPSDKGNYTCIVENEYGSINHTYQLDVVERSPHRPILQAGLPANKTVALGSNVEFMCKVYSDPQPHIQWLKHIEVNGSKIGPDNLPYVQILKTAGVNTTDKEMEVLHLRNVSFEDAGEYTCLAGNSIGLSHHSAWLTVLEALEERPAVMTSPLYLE

Key:
Assay in all cases: far-Western, overlay or dot blot; galectin array: recombinant galectins (0.5 pmol) dot-blotted on PVDF, blocked with 3% BSA, incubated with FGFRs-Fc or Fc (0.9 pM) overnight; detection with anti-Fc mAb-HRP and chemiluminescence; both purified
galectin-14 (human) = target: T1, galectin-14 (human) (UniProt Q8TCE9)
T1 sequence: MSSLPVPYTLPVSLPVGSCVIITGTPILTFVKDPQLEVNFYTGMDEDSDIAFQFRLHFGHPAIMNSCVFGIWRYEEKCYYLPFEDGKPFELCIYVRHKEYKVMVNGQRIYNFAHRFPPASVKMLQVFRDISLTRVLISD

galectin-10 (human) = target: T2, galectin-10 (human) (UniProt Q05315)
T2 sequence: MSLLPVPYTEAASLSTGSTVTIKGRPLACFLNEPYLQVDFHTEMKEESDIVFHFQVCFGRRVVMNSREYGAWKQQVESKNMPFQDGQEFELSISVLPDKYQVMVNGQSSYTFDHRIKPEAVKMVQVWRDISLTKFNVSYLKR

galectin-8 (human) = galectin-8 (human) (UniProt O00214)
galectin-9 (human) = galectin-9 (human) (UniProt O00182)
galectin-7 (human) = galectin-7 (human) (UniProt P47929)
galectin-16 (human) = target: T3, galectin-16 (human) (UniProt A8MUM7)
T3 sequence: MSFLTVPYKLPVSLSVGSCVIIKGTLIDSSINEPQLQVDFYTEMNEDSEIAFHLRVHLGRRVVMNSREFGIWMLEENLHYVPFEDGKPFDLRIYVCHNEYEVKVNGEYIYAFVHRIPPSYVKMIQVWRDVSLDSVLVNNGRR

galectin-1 (human) = galectin-1 (human) (UniProt P09382)
galectin-4 (human) = target: T4, galectin-4 (human) (UniProt P56470)
T4 sequence: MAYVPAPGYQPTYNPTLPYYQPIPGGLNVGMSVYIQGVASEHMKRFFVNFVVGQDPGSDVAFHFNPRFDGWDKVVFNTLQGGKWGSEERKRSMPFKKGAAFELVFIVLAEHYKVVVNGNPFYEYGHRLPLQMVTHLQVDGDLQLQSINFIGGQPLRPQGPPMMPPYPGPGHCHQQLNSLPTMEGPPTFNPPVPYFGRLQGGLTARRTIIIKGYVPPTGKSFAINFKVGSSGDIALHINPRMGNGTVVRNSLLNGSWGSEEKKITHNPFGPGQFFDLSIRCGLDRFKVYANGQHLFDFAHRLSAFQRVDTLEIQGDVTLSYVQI

Measured: binding

extracellular region of FGFR1 fused to the Fc fragment of human IgG1 (from UniProt P11362 22-376) (Fc fusion)
binds: all assays above
